Some of these results come from one statement about several compounds together.
B1: E239A: single-residue variant of full-length mWnt7a (precursor numbering) (protein)
chain: LGASIICNKIPGLAPRQRAICQSRPDAIIVIGEGSQMGLDECQFQFRNGRWNCSALGERTVFGKELKVGSREAAFTYAIIAAGVAHAITAACTQGNLSDCGCDKEKQGQYHRDEGWKWGGCSADIRYGIGFAKVFVDAREIKQNARTLMNLHNNEAGRKILEENMKLECKCHGVSGSCTTKTCWTTLPQFRELGYVLKDKYNEAVHVAPVRASRNKRPTFLKIKKPLSYRKPMDTDLVYIEKSPNYCEEDPVTGSVGTQGRACNKTAPQASGCDLMCCGRGYNTHQYARVWQCNCKFHWCCYVKCNTCSERTEMYTCK
modifications: human Wnt7a variant E208A
B2: P249A: single-residue variant of full-length mWnt7a (precursor numbering) (protein)
chain: MNRKARRCLGHLFLSLGMVYLRIGGFSSVVALGASIICNKIPGLAPRQRAICQSRPDAIIVIGEGSQMGLDECQFQFRNGRWNCSALGERTVFGKELKVGSREAAFTYAIIAAGVAHAITAACTQGNLSDCGCDKEKQGQYHRDEGWKWGGCSADIRYGIGFAKVFVDAREIKQNARTLMNLHNNEAGRKILEENMKLECKCHGVSGSCTTKTCWTTLPQFRELGYVLKDKYNEAVHVEPVRASRNKRATFLKIKKPLSYRKPMDTDLVYIEKSPNYCEEDPVTGSVGTQGRACNKTAPQASGCDLMCCGRGYNTHQYARVWQCNCKFHWCCYVKCNTCSERTEMYTCK
B3: Y260A: single-residue variant of full-length mWnt7a (precursor numbering) (protein)
chain: LGASIICNKIPGLAPRQRAICQSRPDAIIVIGEGSQMGLDECQFQFRNGRWNCSALGERTVFGKELKVGSREAAFTYAIIAAGVAHAITAACTQGNLSDCGCDKEKQGQYHRDEGWKWGGCSADIRYGIGFAKVFVDAREIKQNARTLMNLHNNEAGRKILEENMKLECKCHGVSGSCTTKTCWTTLPQFRELGYVLKDKYNEAVHVEPVRASRNKRPTFLKIKKPLSARKPMDTDLVYIEKSPNYCEEDPVTGSVGTQGRACNKTAPQASGCDLMCCGRGYNTHQYARVWQCNCKFHWCCYVKCNTCSERTEMYTCK
modifications: human Wnt7a variant Y229A
B4: P263A: single-residue variant of full-length mWnt7a (precursor numbering) (protein)
chain: MNRKARRCLGHLFLSLGMVYLRIGGFSSVVALGASIICNKIPGLAPRQRAICQSRPDAIIVIGEGSQMGLDECQFQFRNGRWNCSALGERTVFGKELKVGSREAAFTYAIIAAGVAHAITAACTQGNLSDCGCDKEKQGQYHRDEGWKWGGCSADIRYGIGFAKVFVDAREIKQNARTLMNLHNNEAGRKILEENMKLECKCHGVSGSCTTKTCWTTLPQFRELGYVLKDKYNEAVHVEPVRASRNKRPTFLKIKKPLSYRKAMDTDLVYIEKSPNYCEEDPVTGSVGTQGRACNKTAPQASGCDLMCCGRGYNTHQYARVWQCNCKFHWCCYVKCNTCSERTEMYTCK
B5: T266A: single-residue variant of full-length mWnt7a (precursor numbering) (protein)
chain: MNRKARRCLGHLFLSLGMVYLRIGGFSSVVALGASIICNKIPGLAPRQRAICQSRPDAIIVIGEGSQMGLDECQFQFRNGRWNCSALGERTVFGKELKVGSREAAFTYAIIAAGVAHAITAACTQGNLSDCGCDKEKQGQYHRDEGWKWGGCSADIRYGIGFAKVFVDAREIKQNARTLMNLHNNEAGRKILEENMKLECKCHGVSGSCTTKTCWTTLPQFRELGYVLKDKYNEAVHVEPVRASRNKRPTFLKIKKPLSYRKPMDADLVYIEKSPNYCEEDPVTGSVGTQGRACNKTAPQASGCDLMCCGRGYNTHQYARVWQCNCKFHWCCYVKCNTCSERTEMYTCK
B6: W322A: single-residue variant of full-length mWnt7a (precursor numbering) (protein)
chain: LGASIICNKIPGLAPRQRAICQSRPDAIIVIGEGSQMGLDECQFQFRNGRWNCSALGERTVFGKELKVGSREAAFTYAIIAAGVAHAITAACTQGNLSDCGCDKEKQGQYHRDEGWKWGGCSADIRYGIGFAKVFVDAREIKQNARTLMNLHNNEAGRKILEENMKLECKCHGVSGSCTTKTCWTTLPQFRELGYVLKDKYNEAVHVEPVRASRNKRPTFLKIKKPLSYRKPMDTDLVYIEKSPNYCEEDPVTGSVGTQGRACNKTAPQASGCDLMCCGRGYNTHQYARVAQCNCKFHWCCYVKCNTCSERTEMYTCK
modifications: human full Wnt7a variant W291A
B7: I51A: single-residue variant of full-length mWnt7a (precursor numbering) (protein)
chain: LGASIICNKIPGLAPRQRAACQSRPDAIIVIGEGSQMGLDECQFQFRNGRWNCSALGERTVFGKELKVGSREAAFTYAIIAAGVAHAITAACTQGNLSDCGCDKEKQGQYHRDEGWKWGGCSADIRYGIGFAKVFVDAREIKQNARTLMNLHNNEAGRKILEENMKLECKCHGVSGSCTTKTCWTTLPQFRELGYVLKDKYNEAVHVEPVRASRNKRPTFLKIKKPLSYRKPMDTDLVYIEKSPNYCEEDPVTGSVGTQGRACNKTAPQASGCDLMCCGRGYNTHQYARVWQCNCKFHWCCYVKCNTCSERTEMYTCK
modifications: human Wnt7a variant I20A
B8: T338A: single-residue variant of full-length mWnt7a (precursor numbering) (protein)
chain: LGASIICNKIPGLAPRQRAICQSRPDAIIVIGEGSQMGLDECQFQFRNGRWNCSALGERTVFGKELKVGSREAAFTYAIIAAGVAHAITAACTQGNLSDCGCDKEKQGQYHRDEGWKWGGCSADIRYGIGFAKVFVDAREIKQNARTLMNLHNNEAGRKILEENMKLECKCHGVSGSCTTKTCWTTLPQFRELGYVLKDKYNEAVHVEPVRASRNKRPTFLKIKKPLSYRKPMDTDLVYIEKSPNYCEEDPVTGSVGTQGRACNKTAPQASGCDLMCCGRGYNTHQYARVWQCNCKFHWCCYVKCNACSERTEMYTCK
modifications: human full Wnt7a variant T307A
B9: N83Q: single-residue variant of full-length mWnt7a (precursor numbering) (protein)
chain: LGASIICNKIPGLAPRQRAICQSRPDAIIVIGEGSQMGLDECQFQFRNGRWQCSALGERTVFGKELKVGSREAAFTYAIIAAGVAHAITAACTQGNLSDCGCDKEKQGQYHRDEGWKWGGCSADIRYGIGFAKVFVDAREIKQNARTLMNLHNNEAGRKILEENMKLECKCHGVSGSCTTKTCWTTLPQFRELGYVLKDKYNEAVHVEPVRASRNKRPTFLKIKKPLSYRKPMDTDLVYIEKSPNYCEEDPVTGSVGTQGRACNKTAPQASGCDLMCCGRGYNTHQYARVWQCNCKFHWCCYVKCNTCSERTEMYTCK
modifications: human Wnt7a variant N52Q
B10: P56A: single-residue variant of full-length mWnt7a (precursor numbering) (protein)
chain: MNRKARRCLGHLFLSLGMVYLRIGGFSSVVALGASIICNKIPGLAPRQRAICQSRADAIIVIGEGSQMGLDECQFQFRNGRWNCSALGERTVFGKELKVGSREAAFTYAIIAAGVAHAITAACTQGNLSDCGCDKEKQGQYHRDEGWKWGGCSADIRYGIGFAKVFVDAREIKQNARTLMNLHNNEAGRKILEENMKLECKCHGVSGSCTTKTCWTTLPQFRELGYVLKDKYNEAVHVEPVRASRNKRPTFLKIKKPLSYRKPMDTDLVYIEKSPNYCEEDPVTGSVGTQGRACNKTAPQASGCDLMCCGRGYNTHQYARVWQCNCKFHWCCYVKCNTCSERTEMYTCK
B11: A58R: single-residue variant of full-length mWnt7a (precursor numbering) (protein)
chain: MNRKARRCLGHLFLSLGMVYLRIGGFSSVVALGASIICNKIPGLAPRQRAICQSRPDRIIVIGEGSQMGLDECQFQFRNGRWNCSALGERTVFGKELKVGSREAAFTYAIIAAGVAHAITAACTQGNLSDCGCDKEKQGQYHRDEGWKWGGCSADIRYGIGFAKVFVDAREIKQNARTLMNLHNNEAGRKILEENMKLECKCHGVSGSCTTKTCWTTLPQFRELGYVLKDKYNEAVHVEPVRASRNKRPTFLKIKKPLSYRKPMDTDLVYIEKSPNYCEEDPVTGSVGTQGRACNKTAPQASGCDLMCCGRGYNTHQYARVWQCNCKFHWCCYVKCNTCSERTEMYTCK

Sequences of proteins named here, by UniProt entry; tags and fusion partners are left off. Residues count along the entry.
UniProt O95980, 23-942 limits assumed: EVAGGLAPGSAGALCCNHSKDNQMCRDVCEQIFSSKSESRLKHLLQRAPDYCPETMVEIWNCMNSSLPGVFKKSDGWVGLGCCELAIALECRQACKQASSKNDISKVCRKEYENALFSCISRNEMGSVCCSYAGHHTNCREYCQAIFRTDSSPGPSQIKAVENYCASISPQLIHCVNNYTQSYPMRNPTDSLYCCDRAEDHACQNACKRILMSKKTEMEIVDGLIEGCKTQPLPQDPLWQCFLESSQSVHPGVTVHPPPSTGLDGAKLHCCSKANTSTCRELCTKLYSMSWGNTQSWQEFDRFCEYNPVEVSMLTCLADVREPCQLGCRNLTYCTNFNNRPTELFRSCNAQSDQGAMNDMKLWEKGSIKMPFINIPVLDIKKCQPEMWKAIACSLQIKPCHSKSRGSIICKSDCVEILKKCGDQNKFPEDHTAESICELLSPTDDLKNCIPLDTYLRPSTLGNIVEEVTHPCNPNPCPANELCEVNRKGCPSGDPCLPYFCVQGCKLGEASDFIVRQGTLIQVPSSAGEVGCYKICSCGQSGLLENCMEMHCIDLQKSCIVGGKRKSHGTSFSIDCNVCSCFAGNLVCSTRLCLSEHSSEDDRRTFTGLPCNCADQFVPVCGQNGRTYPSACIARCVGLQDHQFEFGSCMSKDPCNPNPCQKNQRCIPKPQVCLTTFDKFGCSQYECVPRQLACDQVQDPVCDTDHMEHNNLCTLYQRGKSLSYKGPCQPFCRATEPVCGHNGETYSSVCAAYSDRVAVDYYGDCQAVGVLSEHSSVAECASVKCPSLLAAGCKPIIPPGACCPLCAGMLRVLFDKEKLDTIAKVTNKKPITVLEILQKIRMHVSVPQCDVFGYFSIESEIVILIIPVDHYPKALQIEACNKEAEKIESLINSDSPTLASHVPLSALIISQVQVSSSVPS

Target: T1, Gpr124/Reck/Fz/LRP (UniProt O70421+O95980)
T1 construct: host or cells: HEK293-STF cells
Experiment: STF dual luciferase assay, Gpr124/Reck-dependent signaling in HEK293-STF cells
Format: cell-based
Conditions: single residue variants
Protocol: Cells were plated into 96-well plates and transfected after 24 h in triplicate with Lipofectamine 2000 (Life Technologies, Carlsbad, Calif.). The amount of plasmid DNA transfected per well was optimized for each expression vector: Renilla luciferase (0.5 ng) (was kindly provided by Jeremy Nathans (John Hopkins)), Wnt ligands (20 ng), Fz receptors (5 ng), Lrp (2.5 ng), Gpr124 (10 ng), Reck (5 ng) and Dkk-1 (10 ng) unless otherwise indicated. The total amount of DNA was adjusted to 100 ng per well with the empty pCS2 vector. Dual luciferase assays were performed using the STF cell line or by co-transfecting 20 ng of M50 Super 8× TOPFlash plasmid (Addgene plasmid #12456). Cells were harvested in passive lysis buffer (E1960, Promega, Wis.) and the activities of the Firefly and Renilla luciferases were measured sequentially using the Dual-Luciferase Reporter Assay system (E1960, Promega, Madison, Wis.) 48 h post-transfection. The competition assays of FIG. 1C were performed by plating cells as a 1:1:1 mixture at 90% confluency in 96-well plates 24 h after transfection. Luciferase activity was measured 24 h after co-culture.
Cells were plated into 96-well plates and transfected after 24 h in triplicate with Lipofectamine 2000 (Invitrogen, Carlsbad, Calif.). The amount of plasmid DNA transfected per well was optimized for each expression vector: Renilla luciferase (0.5 ng), Wnt (20 ng), Fz (5 ng), LRP (2.5 ng), Gpr124 (10 ng), Reck (10 ng) unless otherwise indicated. The total amount of DNA was adjusted to 100 ng per well with the empty pCS2 vector. Cells were harvested in passive lysis buffer (E1960, Promega, Wisconsin) and the activities of the Firefly and Renilla luciferases were measured sequentially using the Dual-Luciferase Reporter Assay system (E1960, Promega, Madison, Wis.) 48 h post-transfection.

Molecule	Gpr124/Reck/Fz/LRP-mediated Wnt signaling activity, % of wild-type mature full-length Wnt7a
B1	at least 70%
B2	at least 70%
B3	at least 70%
B4	at least 70%
B5	at least 70%
B6	at least 70%
B7	at least 70%
B8	at least 70%
B9	at least 70%
B10	at least 70%
B11	at least 70%

Source: patent publication US11840557B2, “Wnt7 variants capable of activating g-protein coupled receptor (Gpr)124/Reck/frizzled/lipoprotein receptor-related protein (LRP)-mediated Wnt signaling” (UNIVERSITÉ LIBRE DE BRUXELLES, priority 2018, dated 2023)
